Publication PMC12726990
These are yes or no findings as the source states them, for the method shown. In cells and extracts the contact can be indirect. Some entries that bind do so weakly or less than the wild type.

Amino acid sequences for entries named in this document (tags omitted). Residues count along the entry.
UniProt P20138, residues 18-364: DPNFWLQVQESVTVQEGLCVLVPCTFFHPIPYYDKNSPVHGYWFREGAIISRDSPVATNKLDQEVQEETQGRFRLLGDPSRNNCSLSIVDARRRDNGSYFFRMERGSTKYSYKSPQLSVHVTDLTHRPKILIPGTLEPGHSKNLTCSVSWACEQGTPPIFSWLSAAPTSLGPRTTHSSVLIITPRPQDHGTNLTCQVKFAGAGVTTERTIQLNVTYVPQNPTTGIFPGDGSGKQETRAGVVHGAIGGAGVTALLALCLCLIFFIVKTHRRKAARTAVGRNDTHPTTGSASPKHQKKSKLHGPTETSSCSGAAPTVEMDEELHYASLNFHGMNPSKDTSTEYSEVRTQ
UniProt P10909, residues 23-449: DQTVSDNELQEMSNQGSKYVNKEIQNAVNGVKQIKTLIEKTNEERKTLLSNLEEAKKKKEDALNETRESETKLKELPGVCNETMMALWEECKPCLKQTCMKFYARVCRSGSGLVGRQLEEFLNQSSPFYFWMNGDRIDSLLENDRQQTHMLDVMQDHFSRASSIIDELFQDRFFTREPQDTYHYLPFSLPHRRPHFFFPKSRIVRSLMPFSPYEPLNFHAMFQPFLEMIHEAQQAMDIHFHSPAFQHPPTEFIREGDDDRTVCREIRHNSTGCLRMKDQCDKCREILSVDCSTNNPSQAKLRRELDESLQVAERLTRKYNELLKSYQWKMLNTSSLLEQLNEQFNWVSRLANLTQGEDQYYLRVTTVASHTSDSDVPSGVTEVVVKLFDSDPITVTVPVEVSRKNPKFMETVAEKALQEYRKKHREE

Legend:
[1] = target: CD33, endogenous in human brain (human (endogenous in brain)) (UniProt P20138); assay: co-IP; co-immunoprecipitation from AD and control human brain lysates
[2] = target: CD33, endogenous in human brain (human (endogenous in brain)) (UniProt P20138); assay: proximity ligation; in situ proximity ligation assay on AD and control human brain

binding [1]: binds
binding [2]: binds
Substance: Clusterin (CLU), endogenous in human brain (from UniProt P10909 23-449) (ligand)
